PubChem BioAssay AID1159578 – Peter MacCallum Cancer Centre – 2015

Purpose: 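siRNA pools altering how lymphatic endothelial cells close a scratch wound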 (primary screen)
System: human lymphatic endothelial cells
Reagents: siRNA pool against human genes, 40 nM
Time to read-out: 48 h after transfection
Read-out: 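Cells stained with dye and imaged after a scratch; covered wound area and nuclei counted, duplicates averaged, migration set against mock wells and turned into a robust z-score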
Reading the numbers: migration robust z-score: higher = faster migration into the scratch; nuclei per well: higher = more cells in the well
Active means: 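Pools averaging fewer than 3300 nuclei are never called; remaining pools count as changed when migration robust z lies outside -2 to 2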
Calls: active = migration changed; inactive = no migration change, or too few cells
In all, the deposit lists about 18,000 reagents; below is an unselected part. In the full data, about 1,030 (5.7%) are marked active. 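Inactive calls also include pools with fewer than 3300 nuclei, whose migration was not assessed.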 Raw values are not corrected between plates. Unmarked entries are inactive. Further read-outs or replicates are left out here.

Silencing of TSPAN18 (GeneID 90139) came out at: migration robust z-score -0.54; nuclei per well, duplicate mean 5402. For PAGE4 (GeneID 9506), the entry reads migration robust z-score -1.07; nuclei per well, duplicate mean 3785. IMPACT (GeneID 55364) gave migration robust z-score -0.02; nuclei per well, duplicate mean 6262. After knock-down of OLIG1 (GeneID 116448), the screen gave migration robust z-score -0.55; nuclei per well, duplicate mean 5696. Against OR13F1 (GeneID 138805), the values are migration robust z-score 0.2; nuclei per well, duplicate mean 6382. TRAPPC1 (GeneID 58485) showed migration robust z-score -0.81; nuclei per well, duplicate mean 6891.

Against OR4D10 (GeneID 390197), the values are migration robust z-score 1.53; nuclei per well, duplicate mean 6881. Against DENND5A (GeneID 23258), the values are migration robust z-score -0.29; nuclei per well, duplicate mean 5726. For MGA (GeneID 23269), the entry reads migration robust z-score 0.46; nuclei per well, duplicate mean 6262. NPEPL1 (GeneID 79716) gave migration robust z-score 0.8; nuclei per well, duplicate mean 5912. Depletion of CREB3L4 (GeneID 148327) gave: migration robust z-score 1.09; nuclei per well, duplicate mean 5659. MEF2C (GeneID 4208) showed migration robust z-score 0.24; nuclei per well, duplicate mean 6728.

Part of the list above, set out differently.
{"gene":"IMPACT (GeneID 55364)","migration robust z-score":-0.02,"nuclei per well, duplicate mean":6262}
{"gene":"OLIG1 (GeneID 116448)","migration robust z-score":-0.55,"nuclei per well, duplicate mean":5696}
{"gene":"OR13F1 (GeneID 138805)","migration robust z-score":0.2,"nuclei per well, duplicate mean":6382}
{"gene":"TRAPPC1 (GeneID 58485)","migration robust z-score":-0.81,"nuclei per well, duplicate mean":6891}

The listing continues.
With knock-down of C17orf67 (GeneID 339210) the results were migration robust z-score -0.84; nuclei per well, duplicate mean 6220. RASGRF1 (GeneID 5923) gave migration robust z-score -1.12; nuclei per well, duplicate mean 5546. GPLD1 (GeneID 2822) showed migration robust z-score 0.06; nuclei per well, duplicate mean 6066. Against CCDC22 (GeneID 28952), the entry reads migration robust z-score -0.77; nuclei per well, duplicate mean 4406. With knock-down of SF3A2 (GeneID 8175), the record shows migration robust z-score -0.72; nuclei per well, duplicate mean 5168. For MYO1D (GeneID 4642) the deposit lists migration robust z-score 0.34; nuclei per well, duplicate mean 6891.

With knock-down of RDH14 (GeneID 57665), the screen gave migration robust z-score -1.79; nuclei per well, duplicate mean 4193. With knock-down of AGO3 (GeneID 192669) the results were migration robust z-score 0.36; nuclei per well, duplicate mean 5892. MCAT (GeneID 27349) showed migration robust z-score -0.45; nuclei per well, duplicate mean 6084. With knock-down of CBX5 (GeneID 23468) the results were migration robust z-score -0.35; nuclei per well, duplicate mean 6030. With knock-down of OR5T2 (GeneID 219464), the record shows migration robust z-score 0.92; nuclei per well, duplicate mean 5939. With knock-down of ZNF502 (GeneID 91392), the screen gave migration robust z-score 2.02 (active); nuclei per well, duplicate mean 5235.

After knock-down of GPRC5A (GeneID 9052), the screen gave migration robust z-score 1.02; nuclei per well, duplicate mean 6154. With knock-down of PPIH (GeneID 10465) the results were migration robust z-score 1.35; nuclei per well, duplicate mean 6278. With knock-down of MINDY2 (GeneID 54629), the screen gave migration robust z-score -1.68; nuclei per well, duplicate mean 6780.
